Counter-ions that a name gives are not always drawn. This is one part of the list. Repeats in this data set agree poorly, so a single value says little.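 Human fetal ventral-midbrain neural progenitor line ReNCell VM, differentiated without mitogens. Images stained for doublecortin (early neurons) or tyrosine hydroxylase (dopaminergic neurons) were scored by blinded raters against untreated wells (0 = no change). Repeats and both raters were averaged, and compounds averaging 2 or higher were picked as hits for retesting.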
Each compound was assayed on ReNCell VM (assay: neuronal differentiation score (DCX+ cell fraction vs untreated, manual image score) (score (-3 to 3)); higher = more neuronal differentiation). Conditions: library: Tocriscreen; 2 uM; 2 weeks.

Neuronal differentiation score, inactive:
COC(=O)C1=C(C)NC(C)=C(C(=O)OCCCN2CCC(c3ccccc3)(c3ccccc3)CC2)[C@H]1c1cccc([N+](=O)[O-])c1 [(S)-(+)-Niguldipine hydrochloride] 0
CCCCCCN(CCCCCC)C(=O)Cc1c(-c2ccc(F)cc2)[nH]c2ccccc12 0
CCCCC/N=c1\ccn(Cc2ccccc2)c2ccccc12 -1
CS(=O)(=O)c1ccc(-c2cc(Br)sc2-c2ccc(F)cc2)cc1 0
O=c1[nH]nc(Sc2ncc([N+](=O)[O-])s2)n1-c1ccc2c(c1)OCCO2 0
CC(C(O)c1ccc(O)cc1)N1CCC(Cc2ccccc2)CC1 (configuration not stated) [Ifenprodil hemitartrate] 0
CNC(=O)[C@H]1O[C@@H](n2cnc3c(NCc4cccc(I)c4)nc(Cl)nc32)[C@H](O)[C@@H]1O -1

Each compound was assayed on ReNCell VM (assay: dopaminergic neuron differentiation score (TH+ cell fraction vs untreated, manual image score) (score (0 to 3)); higher = more TH+ dopaminergic neuron differentiation). Conditions: library: LOPAC; 2 uM; 4 weeks; BDNF 10 ng/ml + GDNF 10 ng/ml.

Dopaminergic neuron differentiation score, inactive:
N[C@@H](CCCC(=O)O)C(=O)O [L-2-aminoadipic acid] 0
CC(O)C(O)[C@H]1CNc2nc(N)[nH]c(=O)c2N1 (stereo partly drawn) [(6R)-5,6,7,8-Tetrahydro-L-biopterin hydrochloride] 1
N#Cc1c(-c2ccccc2)no[n+]1[O-] [4-Phenyl-3-furoxancarbonitrile] 0
CC(C)c1ccc2c(c1)c(SC(C)(C)C)c(CC(C)(C)C(=O)O)n2Cc1ccc(Cl)cc1 0
N#Cc1cc2nc(O)c(O)nc2cc1[N+](=O)[O-] [CNQX disodium] 0
O=c1[nH]c2ccccc2c2ccccc12 [6(5H)-Phenanthridinone] 0
CSc1ccc(C(=O)c2[nH]c(=O)[nH]c2C)cc1 [Enoximone] 0

Same assay, conditions: library: Natural; 2 uM; 4 weeks; BDNF 10 ng/ml + GDNF 10 ng/ml

Dopaminergic neuron differentiation score, inactive:
CC(Nc1ccc2oc(=O)ccc2c1)=C1C(=O)CC2C1C2(C)C (configuration not stated) 0
O=C(O)CC1NC(=O)C(Cc2ccccc2)NC1=O (configuration not stated) [5-benzyl-3,6-dioxo-2-piperazineacetic acid] 0
O=C1Nc2ccccc2C(=O)N2CCCC12 (configuration not stated) 1

Same assay, conditions: library: Phytochemical; 2 uM; 4 weeks; BDNF 10 ng/ml + GDNF 10 ng/ml

Dopaminergic neuron differentiation score, inactive:
c1ccc2c(c1)CN1CCCC1=N2 [Desoxypeganine Hydrochloride] 0
O=C1Nc2ccccc2/C1=C1/Nc2ccccc2C1=O [Indirubin] 0
C[C@H]1[C@H]2CC[C@H]3[C@@H]4CC=C5C[C@@H](N(C)C)CC[C@]5(C)[C@H]4CC[C@]23CN1C [Conessine] 0
C/C=C1\[C@H]2C=C(C)C[C@]1(N)c1ccc(=O)[nH]c1C2 [Huperzine A] 0

Same assay, conditions: library: Prestwick; 2 uM; 4 weeks; BDNF 10 ng/ml + GDNF 10 ng/ml

Dopaminergic neuron differentiation score, inactive:
CCSc1ccc2c(c1)N(CCCN1CCN(C)CC1)c1ccccc1S2 [Thiethylperazine dimalate] 0
O=C(NCCN1CCOCC1)c1ccc(Cl)cc1 [Moclobemide] 0
C#Cc1cccc(Nc2ncnc3cc(OCCOC)c(OCCOC)cc23)c1 [Erlotinib] 0
O=C1Nc2ccc(Cl)cc2[C@@](C#CC2CC2)(C(F)(F)F)O1 [Efavirenz] 0

Same assay, conditions: library: Spectrum; 2 uM; 4 weeks; BDNF 10 ng/ml + GDNF 10 ng/ml

Dopaminergic neuron differentiation score, inactive:
Cc1ncc(C[n+]2csc(CCO)c2C)c(N)n1 0
O=S(=O)(O)CCCS(=O)(=O)O 0
Nc1nc(=O)c2[nH]c(=O)cnc2[nH]1 0
CCCc1cc(=O)[nH]c(=S)[nH]1 0
N=C(N)NC(=O)Cc1c(Cl)cccc1Cl 0
CC(C)[C@H](N)C(=O)OCC(CO)OCn1cnc2c(=O)nc(N)[nH]c21 (some centres not stated) 0
C=CCc1ccc(O)c(OC)c1 0
CCN[C@@H]1C[C@H](N)[C@@H](O[C@H]2OC(CN)=CC[C@H]2N)[C@H](O)[C@H]1O[C@H]1OC[C@](C)(O)[C@H](NC)[C@H]1O 0
C#C[C@]1(O)CC[C@H]2[C@@H]3CCC4=Cc5oncc5C[C@]4(C)[C@H]3CC[C@@]21C 0
CSc1ccc2c(c1)N(CCC1CCCCN1C)c1ccccc1S2 (configuration not stated) 0
COc1cc(OC)c2c(OC)c(-c3ccc4c(c3)OCO4)c(=O)oc2c1 0
Cc1c(Nc2ncccc2C(=O)O)cccc1C(F)(F)F 0
NC[C@H]1O[C@H](O[C@H]2[C@H](O[C@@H]3O[C@H](CO)[C@@H](O)[C@H]3O)[C@@H](O)[C@H](N)C[C@@H]2N)[C@H](N)[C@@H](O)[C@@H]1O 1
O=C(O)CCCCCCCC(=O)O 0
COc1ccc([C@@H]2CC(=O)c3c(O)cc(O[C@@H]4O[C@H](CO[C@@H]5O[C@@H](C)[C@H](O)[C@@H](O)[C@H]5O)[C@@H](O)[C@H](O)[C@H]4O)cc3O2)cc1O 0

Two compounds drawn at random from the list so far:
Dopaminergic neuron differentiation score, inactive:
C=CCc1ccc(O)c(OC)c1 0
CCN[C@@H]1C[C@H](N)[C@@H](O[C@H]2OC(CN)=CC[C@H]2N)[C@H](O)[C@H]1O[C@H]1OC[C@](C)(O)[C@H](NC)[C@H]1O 0

Same assay, conditions: library: Tocriscreen; 2 uM; 4 weeks; BDNF 10 ng/ml + GDNF 10 ng/ml

Dopaminergic neuron differentiation score, inactive:
COC(=O)C1=C(C)NC(C)=C(C(=O)OCCCN2CCC(c3ccccc3)(c3ccccc3)CC2)[C@H]1c1cccc([N+](=O)[O-])c1 [(S)-(+)-Niguldipine hydrochloride] 0
CCCCCCN(CCCCCC)C(=O)Cc1c(-c2ccc(F)cc2)[nH]c2ccccc12 0
CCCCC/N=c1\ccn(Cc2ccccc2)c2ccccc12 0
CS(=O)(=O)c1ccc(-c2cc(Br)sc2-c2ccc(F)cc2)cc1 0
O=c1[nH]nc(Sc2ncc([N+](=O)[O-])s2)n1-c1ccc2c(c1)OCCO2 0
CC(C(O)c1ccc(O)cc1)N1CCC(Cc2ccccc2)CC1 (configuration not stated) [Ifenprodil hemitartrate] 0
CNC(=O)[C@H]1O[C@@H](n2cnc3c(NCc4cccc(I)c4)nc(Cl)nc32)[C@H](O)[C@@H]1O 0

Source: the supplement of paper PMC4635364
